Some of these results come from one statement about several compounds together.
Assays:
Test in all cases: greenhouse experiments, herbicidal activity, post-emergence treatment
Details in all cases: application rate of 16 g/ha, post-emergence method, scale from 0 to 100
SETVI = format: in vivo, Setaria viridis
AMARE = format: in vivo, Amaranthus retroflexus
CHEAL = format: in vivo, Chenopodium album
Excerpt: The culture containers used were plastic flowerpots containing loamy sand with approximately 3.0% of humus as the substrate. The seeds of the test plants were sown separately for each species.
For the pre-emergence treatment, the active ingredients, which had been suspended or emulsified in water, were applied directly after sowing by means of finely distributing nozzles. The containers were irrigated gently to promote germination and growth and subsequently covered with transparent plastic hoods until the plants had rooted. This cover caused uniform germination of the test plants, unless this had been impaired by the active ingredients. For the post-emergence treatment, the test plants were first grown to a height of 3 to 15 cm, depending on the plant habit, and only then treated with the active ingredients which had been suspended or emulsified in water. For this purpose, the test plants were either sown directly and grown in the same containers, or they were first grown separately as seedlings and transplanted into the test containers a few days prior to treatment.
Depending on the species, the plants were kept at 10-25° C. or 20-35° C., respectively. The test period extended over 2 to 4 weeks. During this time, the plants were tended, and their response to the individual treatments was evaluated.
Evaluation was carried out using a scale from 0 to 100. 100 means no emergence of the plants, or complete destruction of at least the aerial moieties, and 0 means no damage, or normal course of growth. A good herbicidal activity is given at values of at least 70 and a very good herbicidal activity is given at values of at least 85.
The plants used in the greenhouse experiments were of the following species: […]

ECHCG = format: in vivo, Echinocloa crus-galli

COC(=O)COc1ccccc1Oc1nc(-n2c(=O)cc(C(F)(F)F)n(C)c2=O)ccc1Cl [compound 9]
herbicidal activity against SETVI (SETVI): very good herbicidal activity (a very good herbicidal activity is given at values of at least 85)
herbicidal activity against AMARE (AMARE): very good herbicidal activity (a very good herbicidal activity is given at values of at least 85)
herbicidal activity against CHEAL (CHEAL): very good herbicidal activity (a very good herbicidal activity is given at values of at least 85)
herbicidal activity against ECHCG (ECHCG): very good herbicidal activity (a very good herbicidal activity is given at values of at least 85)

CCOC(=O)COc1ccccc1Oc1nc(-n2c(=O)cc(C(F)(F)F)n(C)c2=O)ccc1Cl [compound 10]
herbicidal activity against SETVI (SETVI): very good herbicidal activity (a very good herbicidal activity is given at values of at least 85)
herbicidal activity against AMARE (AMARE): very good herbicidal activity (a very good herbicidal activity is given at values of at least 85)
herbicidal activity against CHEAL (CHEAL): very good herbicidal activity (a very good herbicidal activity is given at values of at least 85)
herbicidal activity against ECHCG (ECHCG): very good herbicidal activity (a very good herbicidal activity is given at values of at least 85)

Cn1c(C(F)(F)F)cc(=O)n(-c2nc(Oc3ccccc3OCC(=O)O)c(F)cc2F)c1=O [compound 11]
herbicidal activity against SETVI (SETVI): very good herbicidal activity (a very good herbicidal activity is given at values of at least 85)
herbicidal activity against AMARE (AMARE): very good herbicidal activity (a very good herbicidal activity is given at values of at least 85)
herbicidal activity against CHEAL (CHEAL): very good herbicidal activity (a very good herbicidal activity is given at values of at least 85)
herbicidal activity against ECHCG (ECHCG): very good herbicidal activity (a very good herbicidal activity is given at values of at least 85)

COC(=O)COc1ccccc1Oc1nc(-n2c(=O)cc(C(F)(F)F)n(C)c2=O)c(F)cc1F [compound 12]
herbicidal activity against SETVI (SETVI): very good herbicidal activity (a very good herbicidal activity is given at values of at least 85)
herbicidal activity against AMARE (AMARE): very good herbicidal activity (a very good herbicidal activity is given at values of at least 85)
herbicidal activity against CHEAL (CHEAL): very good herbicidal activity (a very good herbicidal activity is given at values of at least 85)
herbicidal activity against ECHCG (ECHCG): very good herbicidal activity (a very good herbicidal activity is given at values of at least 85)

COC(=O)CNC(=O)COc1ccccc1Oc1nc(-n2c(=O)cc(C(F)(F)F)n(C)c2=O)c(F)cc1Cl [compound 13]
herbicidal activity against SETVI (SETVI): very good herbicidal activity (a very good herbicidal activity is given at values of at least 85)
herbicidal activity against AMARE (AMARE): very good herbicidal activity (a very good herbicidal activity is given at values of at least 85)
herbicidal activity against CHEAL (CHEAL): very good herbicidal activity (a very good herbicidal activity is given at values of at least 85)
herbicidal activity against ECHCG (ECHCG): very good herbicidal activity (a very good herbicidal activity is given at values of at least 85)

COC(=O)CCNC(=O)COc1ccccc1Oc1nc(-n2c(=O)cc(C(F)(F)F)n(C)c2=O)c(F)cc1Cl [compound 14]
herbicidal activity against SETVI (SETVI): very good herbicidal activity (a very good herbicidal activity is given at values of at least 85)
herbicidal activity against AMARE (AMARE): very good herbicidal activity (a very good herbicidal activity is given at values of at least 85)
herbicidal activity against CHEAL (CHEAL): very good herbicidal activity (a very good herbicidal activity is given at values of at least 85)
herbicidal activity against ECHCG (ECHCG): very good herbicidal activity (a very good herbicidal activity is given at values of at least 85)

CCOC(=O)[C@H](C)Oc1ccccc1Oc1nc(-n2c(=O)cc(C(F)(F)F)n(C)c2=O)c(F)cc1Cl [compound 15]
herbicidal activity against SETVI (SETVI): very good herbicidal activity (a very good herbicidal activity is given at values of at least 85)
herbicidal activity against AMARE (AMARE): very good herbicidal activity (a very good herbicidal activity is given at values of at least 85)
herbicidal activity against CHEAL (CHEAL): very good herbicidal activity (a very good herbicidal activity is given at values of at least 85)
herbicidal activity against ECHCG (ECHCG): very good herbicidal activity (a very good herbicidal activity is given at values of at least 85)

CCOC(=O)[C@@H](C)Oc1ccccc1Oc1nc(-n2c(=O)cc(C(F)(F)F)n(C)c2=O)c(F)cc1Cl [compound 16]
herbicidal activity against SETVI (SETVI): very good herbicidal activity (a very good herbicidal activity is given at values of at least 85)
herbicidal activity against AMARE (AMARE): very good herbicidal activity (a very good herbicidal activity is given at values of at least 85)
herbicidal activity against CHEAL (CHEAL): very good herbicidal activity (a very good herbicidal activity is given at values of at least 85)
herbicidal activity against ECHCG (ECHCG): very good herbicidal activity (a very good herbicidal activity is given at values of at least 85)

CCOC(=O)COc1ccccc1Oc1nc(-n2c(=O)cc(C(F)(F)F)n(C)c2=O)c(F)cc1C#N [compound 17]
herbicidal activity against SETVI (SETVI): very good herbicidal activity (a very good herbicidal activity is given at values of at least 85)
herbicidal activity against AMARE (AMARE): very good herbicidal activity (a very good herbicidal activity is given at values of at least 85)
herbicidal activity against CHEAL (CHEAL): very good herbicidal activity (a very good herbicidal activity is given at values of at least 85)
herbicidal activity against ECHCG (ECHCG): very good herbicidal activity (a very good herbicidal activity is given at values of at least 85)

CCOC(=O)[C@H](C)Oc1ccccc1Oc1nc(-n2c(=O)cc(C(F)(F)F)n(C)c2=O)c(F)cc1F [compound 22]
herbicidal activity against SETVI (SETVI): very good herbicidal activity (a very good herbicidal activity is given at values of at least 85)
herbicidal activity against AMARE (AMARE): very good herbicidal activity (a very good herbicidal activity is given at values of at least 85)
herbicidal activity against CHEAL (CHEAL): very good herbicidal activity (a very good herbicidal activity is given at values of at least 85)
herbicidal activity against ECHCG (ECHCG): very good herbicidal activity (a very good herbicidal activity is given at values of at least 85)

COC(=O)C(C)(C)Oc1ccccc1Oc1nc(-n2c(=O)cc(C(F)(F)F)n(C)c2=O)c(F)cc1Cl [compound 24]
herbicidal activity against SETVI (SETVI): very good herbicidal activity (a very good herbicidal activity is given at values of at least 85)
herbicidal activity against AMARE (AMARE): very good herbicidal activity (a very good herbicidal activity is given at values of at least 85)
herbicidal activity against CHEAL (CHEAL): very good herbicidal activity (a very good herbicidal activity is given at values of at least 85)
herbicidal activity against ECHCG (ECHCG): very good herbicidal activity (a very good herbicidal activity is given at values of at least 85)

CCOC(=O)C(F)(F)Oc1ccccc1Oc1nc(-n2c(=O)cc(C(F)(F)F)n(C)c2=O)c(F)cc1Cl [compound 27]
herbicidal activity against SETVI (SETVI): very good herbicidal activity (a very good herbicidal activity is given at values of at least 85)
herbicidal activity against AMARE (AMARE): very good herbicidal activity (a very good herbicidal activity is given at values of at least 85)
herbicidal activity against CHEAL (CHEAL): very good herbicidal activity (a very good herbicidal activity is given at values of at least 85)
herbicidal activity against ECHCG (ECHCG): very good herbicidal activity (a very good herbicidal activity is given at values of at least 85)

CCOC(=O)COc1ccccc1Oc1nc(-n2c(=O)cc(C(F)(F)F)n(C)c2=O)c(Cl)cc1Cl [compound 33]
herbicidal activity against SETVI (SETVI): very good herbicidal activity (a very good herbicidal activity is given at values of at least 85)
herbicidal activity against AMARE (AMARE): very good herbicidal activity (a very good herbicidal activity is given at values of at least 85)
herbicidal activity against CHEAL (CHEAL): very good herbicidal activity (a very good herbicidal activity is given at values of at least 85)
herbicidal activity against ECHCG (ECHCG): very good herbicidal activity (a very good herbicidal activity is given at values of at least 85)

CCOC(=O)COc1ccccc1Oc1nc(-n2c(=O)cc(C(F)(F)F)n(C)c2=O)ccc1Br [compound 34]
herbicidal activity against SETVI (SETVI): very good herbicidal activity (a very good herbicidal activity is given at values of at least 85)
herbicidal activity against AMARE (AMARE): very good herbicidal activity (a very good herbicidal activity is given at values of at least 85)
herbicidal activity against CHEAL (CHEAL): very good herbicidal activity (a very good herbicidal activity is given at values of at least 85)
herbicidal activity against ECHCG (ECHCG): very good herbicidal activity (a very good herbicidal activity is given at values of at least 85)

CCOC(=O)COc1ccccc1Oc1nc(-n2c(=O)cc(C(F)(F)F)n(C)c2=O)c(F)cc1Br [compound 35]
herbicidal activity against SETVI (SETVI): very good herbicidal activity (a very good herbicidal activity is given at values of at least 85)
herbicidal activity against AMARE (AMARE): very good herbicidal activity (a very good herbicidal activity is given at values of at least 85)
herbicidal activity against CHEAL (CHEAL): very good herbicidal activity (a very good herbicidal activity is given at values of at least 85)
herbicidal activity against ECHCG (ECHCG): very good herbicidal activity (a very good herbicidal activity is given at values of at least 85)

Reference: patent publication US11247980B2, “Herbicidal uracilpyrid” (BASF SE, priority 2017, dated 2022)
